PubChem BioAssay AID1508597, Cure First | 2020

- Purpose: 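Genes whose silencing sensitises or protects ovarian cancer cells against rucaparib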 (primary screen)
- Cells: human ovarian carcinoma lines grown from tumours: OCI-P5x (papillary serous) and OCI-C5x (clear cell)
- Reagents: siRNA pool against human genes, 1.25 pmol siRNA per well
- Duration: 72 h or 96 h, depending on the cell culture
- Treatment: rucaparib 20 µM (about IC30) or vehicle, present until read-out
- Rucaparib or vehicle: Vehicle
- Cell line: OCI-P5x (serous)
- Measured: 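ATP luminescence measured at 72 or 96 h according to the culture, then normalised and expressed as percent viability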
- Direction: viability, normalised: higher = more viable cells remaining
- Active means: 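Active when normalised viability falls below 80 percent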
- Calls: active = viability under 80%; inactive = viability 80% or more
This is a random part of the about 2,100 reagents, in one setting of the screen. 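Calls flag viability under 80% in either arm, not effects specific to rucaparib; the reference for percent is not stated.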 A reagent listed more than once was tested more than once; the source does not tell the runs apart. Reagent sequences are not shown. The record does not give: the 100% reference.

{"target gene": "PRDM15 (PR/SET domain 15)", "technical replicate": "1", "viability, normalised (%)": 73.5, "Outcome": "active"}
{"target gene": "PRDM15 (PR/SET domain 15)", "technical replicate": "2", "viability, normalised (%)": 76, "Outcome": "active"}
{"target gene": "PRDM15 (PR/SET domain 15)", "technical replicate": "3", "viability, normalised (%)": 93.1, "Outcome": "inactive"}
{"target gene": "HSPB8 (heat shock protein family B (small) member 8)", "technical replicate": "1", "viability, normalised (%)": 80.7, "Outcome": "inactive"}
{"target gene": "HSPB8 (heat shock protein family B (small) member 8)", "technical replicate": "2", "viability, normalised (%)": 62.7, "Outcome": "active"}
{"target gene": "HSPB8 (heat shock protein family B (small) member 8)", "technical replicate": "3", "viability, normalised (%)": 62.6, "Outcome": "active"}
{"target gene": "MERTK (MER proto-oncogene, tyrosine kinase)", "technical replicate": "1", "viability, normalised (%)": 75.7, "Outcome": "active"}
{"target gene": "MERTK (MER proto-oncogene, tyrosine kinase)", "technical replicate": "2", "viability, normalised (%)": 77.3, "Outcome": "active"}
{"target gene": "MERTK (MER proto-oncogene, tyrosine kinase)", "technical replicate": "3", "viability, normalised (%)": 66.8, "Outcome": "active"}
{"target gene": "RAD51AP1 (RAD51 associated protein 1)", "technical replicate": "1", "viability, normalised (%)": 71.9, "Outcome": "active"}
{"target gene": "RAD51AP1 (RAD51 associated protein 1)", "technical replicate": "2", "viability, normalised (%)": 74.4, "Outcome": "active"}
{"target gene": "RAD51AP1 (RAD51 associated protein 1)", "technical replicate": "3", "viability, normalised (%)": 83.6, "Outcome": "inactive"}
{"target gene": "KMT2D (lysine methyltransferase 2D)", "technical replicate": "1", "viability, normalised (%)": 60.8, "Outcome": "active"}
{"target gene": "KMT2D (lysine methyltransferase 2D)", "technical replicate": "2", "viability, normalised (%)": 53.3, "Outcome": "active"}
{"target gene": "KMT2D (lysine methyltransferase 2D)", "technical replicate": "3", "viability, normalised (%)": 61.4, "Outcome": "active"}

Continued; the last 3 above are carried over.
{"target gene": "KMT2D (lysine methyltransferase 2D)", "technical replicate": "1", "viability, normalised (%)": 60.8, "Outcome": "active"}
{"target gene": "KMT2D (lysine methyltransferase 2D)", "technical replicate": "2", "viability, normalised (%)": 53.3, "Outcome": "active"}
{"target gene": "KMT2D (lysine methyltransferase 2D)", "technical replicate": "3", "viability, normalised (%)": 61.4, "Outcome": "active"}
{"target gene": "CLDN2 (claudin 2)", "technical replicate": "1", "viability, normalised (%)": 74, "Outcome": "active"}
{"target gene": "CLDN2 (claudin 2)", "technical replicate": "2", "viability, normalised (%)": 74.7, "Outcome": "active"}
{"target gene": "CLDN2 (claudin 2)", "technical replicate": "3", "viability, normalised (%)": 77.3, "Outcome": "active"}
{"target gene": "PARP3 (poly(ADP-ribose) polymerase family member 3)", "technical replicate": "1", "viability, normalised (%)": 53.7, "Outcome": "active"}
{"target gene": "PARP3 (poly(ADP-ribose) polymerase family member 3)", "technical replicate": "1", "viability, normalised (%)": 44.1, "Outcome": "active"}
{"target gene": "PARP3 (poly(ADP-ribose) polymerase family member 3)", "technical replicate": "2", "viability, normalised (%)": 46.5, "Outcome": "active"}
{"target gene": "PARP3 (poly(ADP-ribose) polymerase family member 3)", "technical replicate": "2", "viability, normalised (%)": 55.2, "Outcome": "active"}
{"target gene": "PARP3 (poly(ADP-ribose) polymerase family member 3)", "technical replicate": "3", "viability, normalised (%)": 64, "Outcome": "active"}
{"target gene": "PARP3 (poly(ADP-ribose) polymerase family member 3)", "technical replicate": "3", "viability, normalised (%)": 82.3, "Outcome": "inactive"}
{"target gene": "ERBB2 (erb-b2 receptor tyrosine kinase 2)", "technical replicate": "1", "viability, normalised (%)": 71.4, "Outcome": "active"}
{"target gene": "ERBB2 (erb-b2 receptor tyrosine kinase 2)", "technical replicate": "2", "viability, normalised (%)": 67.5, "Outcome": "active"}
{"target gene": "ERBB2 (erb-b2 receptor tyrosine kinase 2)", "technical replicate": "3", "viability, normalised (%)": 69.4, "Outcome": "active"}
{"target gene": "RUVBL1 (RuvB like AAA ATPase 1)", "technical replicate": "1", "viability, normalised (%)": 58.7, "Outcome": "active"}
{"target gene": "RUVBL1 (RuvB like AAA ATPase 1)", "technical replicate": "2", "viability, normalised (%)": 63.3, "Outcome": "active"}
{"target gene": "RUVBL1 (RuvB like AAA ATPase 1)", "technical replicate": "3", "viability, normalised (%)": 62.3, "Outcome": "active"}
{"target gene": "PAPSS1 (3'-phosphoadenosine 5'-phosphosulfate synthase 1)", "technical replicate": "1", "viability, normalised (%)": 65.9, "Outcome": "active"}
{"target gene": "PAPSS1 (3'-phosphoadenosine 5'-phosphosulfate synthase 1)", "technical replicate": "2", "viability, normalised (%)": 76.6, "Outcome": "active"}
{"target gene": "PAPSS1 (3'-phosphoadenosine 5'-phosphosulfate synthase 1)", "technical replicate": "3", "viability, normalised (%)": 71.5, "Outcome": "active"}
